One test deals with T1, HA-IKKβ (UniProt O14920).
T1 sequence: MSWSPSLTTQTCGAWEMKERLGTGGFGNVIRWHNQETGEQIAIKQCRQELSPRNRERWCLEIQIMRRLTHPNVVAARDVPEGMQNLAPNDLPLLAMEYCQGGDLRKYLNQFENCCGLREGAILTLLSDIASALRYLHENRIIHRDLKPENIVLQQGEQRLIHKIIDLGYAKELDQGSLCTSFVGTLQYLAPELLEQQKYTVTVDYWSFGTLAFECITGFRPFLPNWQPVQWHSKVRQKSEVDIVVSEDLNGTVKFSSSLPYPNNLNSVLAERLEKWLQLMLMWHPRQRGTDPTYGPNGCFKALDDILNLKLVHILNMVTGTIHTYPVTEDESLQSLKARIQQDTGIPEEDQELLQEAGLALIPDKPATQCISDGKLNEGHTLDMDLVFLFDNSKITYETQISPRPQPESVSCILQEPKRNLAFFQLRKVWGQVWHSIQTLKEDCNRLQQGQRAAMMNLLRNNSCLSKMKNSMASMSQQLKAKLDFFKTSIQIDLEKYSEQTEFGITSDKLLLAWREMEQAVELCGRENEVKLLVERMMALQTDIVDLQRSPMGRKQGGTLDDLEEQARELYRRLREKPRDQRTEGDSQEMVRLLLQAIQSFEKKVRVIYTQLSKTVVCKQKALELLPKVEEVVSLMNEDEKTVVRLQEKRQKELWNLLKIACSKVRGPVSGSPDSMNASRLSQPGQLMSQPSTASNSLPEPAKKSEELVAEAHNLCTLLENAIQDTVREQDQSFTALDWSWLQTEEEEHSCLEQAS
In words: co-IP; HEK 293 cells co-transfected with HA-IKKβ and FLAG-TAK1 and 0.5, 1.0, 1.5 or 2.0 μg of FLAG-DUSP5 WT or C263S plasmid; lysates precipitated with anti-HA antibody and protein A/G beads; blot with anti-FLAG.

The target in test [1] is T2, Dual-specificity phosphatase 5 (DUSP5), endogenous (mouse (endogenous in RAW 264.7 and MEF)) (UniProt Q1HL35).
T2 sequence: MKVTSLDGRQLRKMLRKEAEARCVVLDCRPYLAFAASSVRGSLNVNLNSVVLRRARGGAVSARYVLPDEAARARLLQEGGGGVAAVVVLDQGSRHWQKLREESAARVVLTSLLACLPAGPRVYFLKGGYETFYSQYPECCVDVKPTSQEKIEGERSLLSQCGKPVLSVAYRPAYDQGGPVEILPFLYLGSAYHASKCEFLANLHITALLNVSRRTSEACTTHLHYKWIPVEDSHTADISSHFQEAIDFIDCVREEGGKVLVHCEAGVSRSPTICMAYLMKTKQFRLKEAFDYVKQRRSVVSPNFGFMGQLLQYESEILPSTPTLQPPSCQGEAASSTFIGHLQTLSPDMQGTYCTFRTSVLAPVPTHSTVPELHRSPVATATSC
The test is described as follows: co-IP; DUSP5 WT MEFs (DUSP5 KO MEFs as control); Supplementary Figure 4.

The target of test [2] is T2, Dual-specificity phosphatase 5 (DUSP5), endogenous (mouse (endogenous in RAW 264.7 and MEF)). The test is described as follows: co-IP; lysates of LPS-treated RAW 264.7 cells precipitated with anti-DUSP5 antibody (or goat pre-immune IgG) and protein A/G beads; blots with anti-IκBα, anti-IKKα/β and anti-TAK1.
The target of a further test is T3, HA-IKKβ, O14920.
T3 chain: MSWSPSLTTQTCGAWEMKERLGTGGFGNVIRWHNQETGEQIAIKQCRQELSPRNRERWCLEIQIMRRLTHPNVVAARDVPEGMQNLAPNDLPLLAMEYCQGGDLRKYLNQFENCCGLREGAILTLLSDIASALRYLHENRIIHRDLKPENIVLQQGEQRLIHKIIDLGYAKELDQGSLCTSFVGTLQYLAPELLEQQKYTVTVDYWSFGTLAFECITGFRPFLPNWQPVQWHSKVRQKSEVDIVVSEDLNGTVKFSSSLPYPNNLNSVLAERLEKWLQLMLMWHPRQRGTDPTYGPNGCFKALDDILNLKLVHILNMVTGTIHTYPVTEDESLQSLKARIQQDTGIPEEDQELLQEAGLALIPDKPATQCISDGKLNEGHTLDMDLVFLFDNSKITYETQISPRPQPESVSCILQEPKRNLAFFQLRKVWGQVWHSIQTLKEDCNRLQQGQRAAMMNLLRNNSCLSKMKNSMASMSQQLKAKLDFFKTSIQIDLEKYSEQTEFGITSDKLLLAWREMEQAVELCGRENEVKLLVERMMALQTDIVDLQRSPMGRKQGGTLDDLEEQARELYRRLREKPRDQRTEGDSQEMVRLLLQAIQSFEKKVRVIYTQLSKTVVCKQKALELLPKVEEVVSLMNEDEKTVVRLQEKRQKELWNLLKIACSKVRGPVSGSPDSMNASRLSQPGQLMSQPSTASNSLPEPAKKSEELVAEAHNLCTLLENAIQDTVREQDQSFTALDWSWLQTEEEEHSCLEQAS
The test is described as follows: co-IP; HEK 293 cells co-transfected with HA-IKKβ and FLAG-TAK1 and 0.5, 1.0, 1.5 or 2.0 μg of FLAG-DUSP5 WT or C263S plasmid; lysates precipitated with anti-HA antibody and protein A/G beads; blot with anti-FLAG. The note with it: remark: other sources report otherwise.

These are yes or no findings as the source states them, for the method shown. In cells and extracts the contact can be indirect. Some results given as binding are weak or reduced against the parent protein; the word gives no strength. For part of these data: Sequences can lack the tags named with a protein.

B1: FLAG-tagged DUSP5 wild type (enzyme, UniProt Q16690 1-384)
chain: MKVTSLDGRQLRKMLRKEAAARCVVLDCRPYLAFAASNVRGSLNVNLNSVVLRRARGGAVSARYVLPDEAARARLLQEGGGGVAAVVVLDQGSRHWQKLREESAARVVLTSLLACLPAGPRVYFLKGGYETFYSEYPECCVDVKPISQEKIESERALISQCGKPVVNVSYRPAYDQGGPVEILPFLYLGSAYHASKCEFLANLHITALLNVSRRTSEACATHLHYKWIPVEDSHTADISSHFQEAIDFIDCVREKGGKVLVHCEAGISRSPTICMAYLMKTKQFRLKEAFDYIKQRRSMVSPNFGFMGQLLQYESEILPSTPNPQPPSCQGEAAGSSLIGHLQTLSPDMQGAYCTFPASVLAPVPTHSTVSELSRSPVATATSC
B1: the binding result with HA-IKKβ is given as “binds”.

B2: FLAG-tagged DUSP5 C263S (catalytically inactive mutant) (enzyme, UniProt Q16690 1-384)
chain: MKVTSLDGRQLRKMLRKEAAARCVVLDCRPYLAFAASNVRGSLNVNLNSVVLRRARGGAVSARYVLPDEAARARLLQEGGGGVAAVVVLDQGSRHWQKLREESAARVVLTSLLACLPAGPRVYFLKGGYETFYSEYPECCVDVKPISQEKIESERALISQCGKPVVNVSYRPAYDQGGPVEILPFLYLGSAYHASKCEFLANLHITALLNVSRRTSEACATHLHYKWIPVEDSHTADISSHFQEAIDFIDCVREKGGKVLVHSEAGISRSPTICMAYLMKTKQFRLKEAFDYIKQRRSMVSPNFGFMGQLLQYESEILPSTPNPQPPSCQGEAAGSSLIGHLQTLSPDMQGAYCTFPASVLAPVPTHSTVSELSRSPVATATSC
Turning to B2, the binding entry with HA-IKKβ is recorded as “binds”.

B3: IκB kinase alpha (IKKα), endogenous (enzyme, UniProt Q60680 1-745)
chain: MERPPGLRPGAGGPWEMRERLGTGGFGNVSLYQHRELDLKIAIKSCRLELSSKNRERWCHEIQIMKKLDHANVVKACDVPEELNFLINDVPLLAMEYCSGGDLRKLLNKPENCCGLKESQILSLLSDIGSGIRYLHENKIIHRDLKPENIVLQDVGGKTIHKIIDLGYAKDVDQGSLCTSFVGTLQYLAPELFENKPYTATVDYWSFGTMVFECIAGYRPFLHHLQPFTWHEKIKKKDPKCIFACEEMTGEVRFSSHLPQPNSLCSLIVEPMESWLQLMLNWDPQQRGGPIDLTLKQPRCFALMDHILNLKIVHILNMTSAKIISFLLPCDESLHSLQSRIERETGINTGSQELLSETGISLDPRKPASQCVLDGVRGCDSYMVYLFDKSKTVYEGPFASRSLSDCVNYIVQDSKIQLPIIQLRKVWAEAVHYVSGLKEDYSRLFQGQRAAMLSLLRYNANLTKMKNTLISASQQLKAKLEFFRKSIQLDLERYSEQMTYGISSEKMLKAWKEMEEKAIHYSEVGVIGYLEDQIMSLHTEIMELQKSPYGRRQGDLMESLEQRAIDLYKQLKHRPPDHLYSDSTEMVKIIVHTVQSQDRVLKELFGHLSKLLGCKQKIIDLLPKVEVALSNIKEADNTVMFMQGKRQKEIWHLLKIACTQSSARSLVGSSLEGTVTPPVSAWLPPTLADREHPLTCVVTPQDGETLAQMIEENLNCLGHLSTIIREANEDQSSSLMSLDWSWLAE
On to B3, for which the binding result in test [1] and in test [2] was “binds” each time.

B4: FLAG-tagged TAK1, O43318 1-606 (enzyme)
chain: MSTASAASSSSSSSAGEMIEAPSQVLNFEEIDYKEIEVEEVVGRGAFGVVCKAKWRAKDVAIKQIESESERKAFIVELRQLSRVNHPNIVKLYGACLNPVCLVMEYAEGGSLYNVLHGAEPLPYYTAAHAMSWCLQCSQGVAYLHSMQPKALIHRDLKPPNLLLVAGGTVLKICDFGTACDIQTHMTNNKGSAAWMAPEVFEGSNYSEKCDVFSWGIILWEVITRRKPFDEIGGPAFRIMWAVHNGTRPPLIKNLPKPIESLMTRCWSKDPSQRPSMEEIVKIMTHLMRYFPGADEPLQYPCQYSDEGQSNSATSTGSFMDIASTNTSNKSDTNMEQVPATNDTIKRLESKLLKNQAKQQSESGRLSLGASRGSSVESLPPTSEGKRMSADMSEIEARIAATTAYSKPKRGHRKTASFGNILDVPEIVISGNGQPRRRSIQDLTVTGTEPGQVSSRSSSPSVRMITTSGPTSEKPTRSHPWTPDDSTDTNGSDNSIPMAYLTLDHQLQPLAPCPNSKESMAVFEQHCKMAQEYMKVQTEIALLLQRKQELVAELDQDEKDQQNTSRLVQEHKKLLDENKSLSTYYQQCKKQLEVIRSQQQKRQGTS
Take B4: the binding result in the test with HA-IKKβ, O14920 was “binds”.

B5: Transforming growth factor beta-activated kinase 1 (TAK1), endogenous (enzyme, UniProt Q62073 1-579)
chain: MSTASAASSSSSSSASEMIEAPSQVLNFEEIDYKEIEVEEVVGRGAFGVVCKAKWRAKDVAIKQIESESERKAFIVELRQLSRVNHPNIVKLYGACLNPVCLVMEYAEGGSLYNVLHGAEPLPYYTAAHAMSWCLQCSQGVAYLHSMQPKALIHRDLKPPNLLLVAGGTVLKICDFGTACDIQTHMTNNKGSAAWMAPEVFEGSNYSEKCDVFSWGIILWEVITRRKPFDEIGGPAFRIMWAVHNGTRPPLIKNLPKPIESLMTRCWSKDPSQRPSMEEIVKIMTHLMRYFPGADEPLQYPCQYSDEGQSNSATSTGSFMDIASTNTSNKSDTNMEQVPATNDTIKRLESKLLKNQAKQQSESGRLSLGASRGSSVESLPPTSEGKRMSADMSEIEARIVATAGNGQPRRRSIQDLTVTGTEPGQVSSRSSSPSVRMITTSGPTSEKPARSHPWTPDDSTDTNGSDNSIPMAYLTLDHQLQPLAPCPNSKESMAVFEQHCKMAQEYMKVQTEIALLLQRKQELVAELDQDEKDQQNTSRLVQEHKKLLDENKSLSTYYQQCKKQLEVIRSQQQKRQGTS
Consider B5, for which the binding entry in test [1] and in test [2] was “binds” in each case.

B6: IκB kinase beta (IKKβ), endogenous (enzyme, UniProt O88351 1-757)
chain: MSWSPSLPTQTCGAWEMKERLGTGGFGNVIRWHNQATGEQIAIKQCRQELSPKNRNRWCLEIQIMRRLNHPNVVAARDVPEGMQNLAPNDLPLLAMEYCQGGDLRRYLNQFENCCGLREGAVLTLLSDIASALRYLHENRIIHRDLKPENIVLQQGEKRLIHKIIDLGYAKELDQGSLCTSFVGTLQYLAPELLEQQKYTVTVDYWSFGTLAFECITGFRPFLPNWQPVQWHSKVRQKSEVDIVVSEDLNGAVKFSSSLPFPNNLNSVLAERLEKWLQLMLMWHPRQRGTDPQYGPNGCFRALDDILNLKLVHVLNMVTGTVHTYPVTEDESLQSLKTRIQENTGILETDQELLQKAGLVLLPDKPATQCISDSKTNEGLTLDMDLVFLLDNSKINYETQITPRPPPESVSCILQEPKRNLSFFQLRKVWGQVWHSIQTLKEDCNRLQQGQRAAMMSLLRNNSCLSKMKNAMASTAQQLKAKLDFFKTSIQIDLEKYKEQTEFGITSDKLLLAWREMEQAVEQCGRENDVKHLVERMMALQTDIVDLQRSPMGRKQGGTLDDLEEQARELYRKLREKPRDQRTEGDSQEMVRLLLQAIQSFEKKVRVIYTQLSKTVVCKQKALELLPKVEEVVSLMNEDERTVVRLQEKRQKELWNLLKIACSKVRGPVSGSPDSMNVSRLSHPGQLMSQPSSACDSLPESDKKSEELVAEAHALCSRLESALQDTVKEQDRSFTTLDWSWLQMEDEERCSLEQACD
Regarding B6, the binding result in test [1] and in test [2] was “binds” throughout.

The values are drawn from PMC5725455.
